Source: publication PMC7113852 (Antiviral Research, 2018)
Read-outs that look alike come from different tables or passages of the source.

System: EV1
Assay: microbe, parasite or virus in culture
Type: cell-based, Echovirus 1
Settings: Enterovirus B, RPE

Question: For `CNCCC(Oc1ccc(C(F)(F)F)cc1)c1ccccc1` (centres unmarked) [Fluoxatine], which EC50 (read-out: EC50 CTG) is on record?
Answer: 340 nM

Question: What about the EC50 (read-out: EC50 CTxG) of the same compound?
Answer: 720 nM
